Measurements as given in publication PMC10512220.
These are yes or no findings as the source states them, for the method shown. Binding seen in cells or lysates may run through a third protein. These calls come from enrichment with a bait or labelling near it, and not all partners need be listed. Where a sequence is shown, tags or fusion partners need not be part of it.

T1: GUL-1-GFP (Neurospora crassa) (UniProt Q1K842)
T1 sequence: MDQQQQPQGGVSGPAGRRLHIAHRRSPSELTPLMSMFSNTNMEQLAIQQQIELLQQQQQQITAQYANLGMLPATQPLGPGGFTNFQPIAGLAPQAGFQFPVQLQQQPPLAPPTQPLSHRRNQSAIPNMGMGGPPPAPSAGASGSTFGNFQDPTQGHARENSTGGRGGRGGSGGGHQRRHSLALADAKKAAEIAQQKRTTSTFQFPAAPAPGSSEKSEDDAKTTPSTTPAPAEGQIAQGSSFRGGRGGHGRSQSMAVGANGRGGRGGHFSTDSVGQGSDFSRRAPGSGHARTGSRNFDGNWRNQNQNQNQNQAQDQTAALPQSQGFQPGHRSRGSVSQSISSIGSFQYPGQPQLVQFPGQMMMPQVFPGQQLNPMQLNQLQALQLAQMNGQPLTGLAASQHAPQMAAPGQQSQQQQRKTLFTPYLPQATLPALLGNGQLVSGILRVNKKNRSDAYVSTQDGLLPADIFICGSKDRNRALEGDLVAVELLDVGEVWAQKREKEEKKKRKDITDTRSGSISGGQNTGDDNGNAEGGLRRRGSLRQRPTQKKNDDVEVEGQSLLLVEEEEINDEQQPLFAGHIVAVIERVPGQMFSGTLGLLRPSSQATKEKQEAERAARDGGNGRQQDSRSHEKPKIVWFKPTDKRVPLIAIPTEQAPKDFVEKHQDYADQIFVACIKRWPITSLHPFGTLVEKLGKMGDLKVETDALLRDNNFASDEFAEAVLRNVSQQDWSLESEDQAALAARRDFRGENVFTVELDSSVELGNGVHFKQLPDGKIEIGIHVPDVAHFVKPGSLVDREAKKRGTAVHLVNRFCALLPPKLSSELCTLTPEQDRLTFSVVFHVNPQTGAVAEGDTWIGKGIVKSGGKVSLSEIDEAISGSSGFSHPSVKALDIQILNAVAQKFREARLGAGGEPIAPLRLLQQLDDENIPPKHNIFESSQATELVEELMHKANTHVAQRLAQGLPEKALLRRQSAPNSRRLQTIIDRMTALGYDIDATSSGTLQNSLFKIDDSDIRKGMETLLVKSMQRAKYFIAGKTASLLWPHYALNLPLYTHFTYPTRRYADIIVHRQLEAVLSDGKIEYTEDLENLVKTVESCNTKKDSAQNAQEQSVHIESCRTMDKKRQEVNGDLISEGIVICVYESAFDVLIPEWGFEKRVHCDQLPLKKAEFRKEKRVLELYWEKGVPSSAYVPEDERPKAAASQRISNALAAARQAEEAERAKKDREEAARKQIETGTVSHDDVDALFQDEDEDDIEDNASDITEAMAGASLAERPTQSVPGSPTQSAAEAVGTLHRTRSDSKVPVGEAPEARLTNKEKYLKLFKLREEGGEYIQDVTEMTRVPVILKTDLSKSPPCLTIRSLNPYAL

B1: OS-4 (NCU03071) (enzyme, UniProt Q1K904 1-1367)
chain: MASELSPRAVRFSQTDDEPIARLDKHKTVSRPNPRANDSDNSNPSTDAHDDLHVREQIDELGSLSRYVESHSGSVPSLVPGSLTSSLPLANGSSSRRGASSETYANGTPSRPQRPTAPARTPSNTYQPYNQRRPPQGQPSSYMANNPHARDGSRPRPLAGTSTFRAQEREYVRRLRQQDYNNDYFDAYGSGEQYDSDSEGETPSSEGAFDSYDDAHIMFASNEDIQITEEDLRDPESRERLEWHGMLEAVLTGDVVRQEKKRLIGSNDEAFGKSAHNVELWLGIRARLCGRHLPVQKRVVEDARAALDRSINDIINFAIAGESEAGKPPFEQVRDVVNKIERIESLYPSSRELMTALKPGVYSAYQETCDAVISWYNVNEMINTELSILKKWVGNDALDFSRTKEKSPSGNGLSDESSFLDRLMKEEGLKSLHEDKGSEPKSLKKKSRLDGISRVITKAKDTLIQNAEGFQKRHLPPYIEELLTLISFPSRLIEEIIKMRLAYAKKMKDSAQQNPMMQDQMISQFQVLLKLAIKIKREYMEIARPEPGWDLPPCIDEDFDRVILEALKYYFKLLNWKLSGNKNTFKEAELLFQEWGFGNEIGRYLAHGDVEVAEQFSSLTYKAWNRLSQTFEKEVQRRPKESVPEMTKRYKQILDSVRVRQRMLQRFSRMLNDNYENACDYTIAFEQPQMLHQLYDRLIETGHFQVYSASPEHKDILIIASPTLHNRDDEIQVLMGTFTYEAAIEDPSDPYLLIIKAEDPPQWLGPVHTLRVRNEPLDIKLGHMRLIAGGCQPRLLNARKAFVDRIDMQVDPVVEQRSNLQKVNFRLMEIRKVAFKLSNAFMDSVEAIRRQTRGLNCQELIQTCFIFATEFGQRSLLYMDNNRRTMNNLKLTKLALDWVSFICDDCISSDRKTFRWAVQALEFAMGMTRGRHILGLGEDEYARLRAKVAGCMALLISHFDIMGARSSVAAQAEKKRLEGLVNQIKRLNKGQMLDDNEAAKYYQEHRLEELAKVDNYRKEILLQQSAMGRVLEASNEVDRSLAWLSSTATNFTMRWQQGHFVGGGTFGNVYAAVNLDTGQLMAVKEIRLQDPKLIPTIAGQIRDEMRVLETVDHPNVVSYYGIEVHRDRVYMFMEFCSGGSLANLLEHGRIEDEQVIMVYALQLLEGLAYLHELKIAHRDIKPENILLDHNGIIKYVDFGAAKLIARQGRTLVQDVASTKPNKSMTGTPMYMSPEVIKGENAGHFGAVDIWSLGCVILEMATGRRPWANLDNEWAIMYNIAQGNPPQLPSQDQLSPEGIDFLRRCFMRDSTKRATAMELLQHEWIMTIRNRVVEPATPSSDAGSSTTSQGALNPGNSSRGGFPGDGMY
B2: eIF3G (NCU08046) (protein, UniProt Q6MFP4 1-297)
chain: MAAVQQKHDWADDDELEETSTELPPPQKITNKDGSTTIIEYRLNDNGQKVKTTRRIRYITHREVVNPRVAERKSWTKFGLSVKDGAGPAPDTTSVGENIIFKPSFNWRQEAKDESKDPNAQAMKDKLKDKKVKCRICNGEHFTARCPYKDTMAPIGEAGAAADVAASAADEAAAASQGAAGAGKKGSYVPPALRGAGGAAAAGERMGGKYGERDDLATLRVTNVSEMAEEQELRDMFERFGRVTRVFLAKDRDTGLAKGFAFISFADRSDAVKACAKMDGFGFRHLILRVEFAKKAA
B3: eIF3 subunit (NCU05889) (protein, UniProt Q7S519 1-443)
chain: MASTSPATTNGDVAPANYDLVLKLAPHLDRHMIFPLLEFNAGRLKEDETDKAREILAAKYALLKKTNMTDYVANLYCELEGLKEPPAEYAERRQKVFHQLEKYEQETAKITELLQRDDVVNNLRSDKVANLEFLKKEHDVTIDMVNALYDFGQLQYSCGNYADASELLYRFRVLSTDNDKVSYATWGRLACEILTMNWESAMEELQKVRESIDTRLANNPLAQLQHRTELVHWALFPLFNYDKAREPLLDLFFNAGFINTIQANSPWILRYLTVAVITNRGRAKNAGVHQKQMKDVVRIVKQEAYEYQDPITRFVHALCIDFDFEEAQQQLVLAEEVLRSDFFLLAHADDFVDSARHLIFESYCKIHARISLKDLSARLGLNNDDAEKWIVNLIRDTRLDAKIDYKEGTVVMNHPPSSVYQQVIERTKGGFFRTQVLTAAVAR
B4: PAB (NCU04799) (protein, UniProt Q7S6N6 1-764)
chain: MAATSTAAVDQLAADLGNTSLDNKAAAPAPIDTSAVPEAQAEGAEAAPTPTAAPHPQASASLYVGELDPSVTEAMLFELFSQIGSVASIRVCRDAVTRRSLGYAYVNYNTTADGEKALEELNYTLIKGRPCRIMWSQRDPALRKTGAGNIFIKNLDAAIDNKALHDTFAAFGNILSCKVAQDEHGNSKGYGFVHYETDEAASQAIKHVNGMLLNEKKVYVGHHIPKKDRQSKFEEMKANFTNVYVKNINNEVTDEEFRELFAKFGEVTSSSLARDQEGKSRGFGFVNFTTHEAAAQAVDELNGKDFRGQDLYVGRAQKKHEREEELRKSYEAARLEKANKYQGVNLYIKNLGDDVDDDKLRAMFSEYGPITSAKVMRDSLIEGSEEKDEKDKENKKEGETKEEEQNEGSEKKTEKKGDRKLGKSKGFGFVCFSNPDDATKAVTEMNQRMVDGKPLYVALAQRKDVRKSQLEASIQARNQLRMQQAAAQAGMPQQYMQAPVYYAGQQPGFMPAPGGRGVPFPQGGIVPGVQGGRPGQYPYQQGGRGGVPPQQMPPMGYPINQFGPGAFPPNTPQYMAAMGQVGALGGGRGGPAGRGPQGIPAGIPQGLQGGPAVPGYPPAGRPQNGGGRGTPRGNANFMAAGRGASPIPGAPADLSAGSFLQAQLATTQDPQAQKQIIGENLFPKIQAIQPALAGKITGMLLEMDNAELINLFEDDNALNVKVQEALAVYDEYLKTQGQQPTQQPAEANGEQPKAEEQKPEEQKA
B5: eIF3 subunit (NCU01021) (protein, UniProt Q9P748 1-369)
chain: MAVDQESFVHLSRPLAPNVLGFGVSNAPLTVNIQPQAVFSIIDHAVRRDDRDTQSTRVIGALVGVRSEDGSEVEVRSTFAIPHTENEDQVEVDVEYQKNMLALTLKANPRETLLGWYTTSHELNSFSALIQNFFASPETGTFPHPAVHLTIGTEAGATIDTKTYISAPVAVSPERAAESCLFIEVPHKLLFTDAERGALGSVAAAADAESRSAPVVSDIENLAQALETVSDLLERVSGFVGEVLDEERDGNHALGQYLMNALSLAPKVSNLAIENDFNNHIQDVLMVSYLANTIRTQIELSQRLATAKLDEGKEGGEKKDGEGAEGDKKTDGQRGQRGQGGKRGGRSGGAGGRGGREQREPREPREAAE
B6: eIF3 subunit (NCU00040) (protein, UniProt Q7RWT1 1-1059)
chain: MPPPPHQKPENVLKRAHELIGVNQAPAALTLLHEHITSKRSRNVPIASLEPVMLLLVELSVEQKKGKLAKDALYQYKNIAQNTNVATIELVLKKFIELAAEKVTAAQAKADEVQSSIEATTSNIDDLEASETPESILLATVSGEQSRDRTDRAIVTPWLKFLWEAYRTVLDILRNNARLEVLYQSTAMQAFDFCLKYTRKTEFRRLCELLRNHVQTAAKYSAQMHAINLNDPDTLQRHLETRFQQLNVAVELELWQEAFRSVEDIHTLLSLSKRPAKNVMMANYYEKLTRIFLVGENYLFHAAAWARYYNLLRQSAALIASGHSKKADNPACSDADLQRAATFVILSALSIPVISTSRSRGAMVDFDEARKNKNSRLTHLLGMAQAPTRAGLFRDALSKSLLRRAQPQIRDLYNILEVDFHPLSICQKISPILAEIGADAEMQKYILPLQQVILTRLFQQLSQVYETVDLEFVESLAQFPEPFQVTRGTIEKFIMNGNKKGDLAIRMDHATGVLSFDADVFSSAKAVHAGSSAGSAESETGSVQRLQSTPSQIVRSQLTRLAEALYTTCRYIDPSFNEARIKARDEALARAKAGAEKEHQEVLARKEIIQTRKDKASEAQAQKEKENARKKLLQEQALQQAEAARLAEEQKLREAKRLANEREQIKRKEVEALLKDMKLEELQGEDIETLDSNKIRMIKLQQLEREKNSVAEKLRITGKRLDHLERAFRKEEAKKLPEDYAKQRERDLAAYERTKAQTLKEAELKHKADVELKHRLTRLMPFYESFRSDLHERRRDEFEKRRRDAEREMEKQINARRKEAREKRIREKREREERERQLREAEERAAREKEEERKRLEARREELQRLKEEKEKEREKLREIAARQQQREEEAMARRKAEKEKLAATPSAYRPPAAAERTEAAAPPRIALAGNRPSWREREAAKAASGETAAPAPAAAEPVAERPRAAAPPAERTEAAAPPRLALAGNRPSWREREAAKAASGGGNAAAVPERSAPPLRAAAPQRAGSGRPENDRDVPPAEPLKASGAPGKYVPKWRREGA

These binders were tested against T1, GUL-1-GFP (Neurospora crassa) (assay: affinity purification with mass spectrometry; GUL-1-GFP captured from cleared crude N. crassa extract on GFP-Trap magnetic agarose beads overnight at 4°C; washed with 25 mM Tris HCl pH 7.5, 150 mM NaCl, 1.5 mM MgCl2, 1% NP-40, 1 mM EDTA; LC-MS-MS, label-free quantification against a strain expressing GFP alone; three biological replicates; cultures under standard growth conditions, without NH4NO3 for the last 1 h, or with 10^-5 M Nikkomycin Z for the last 1 h).

| binding | Binder |
| --- | --- |
| binds | B1 |
| binds | B2 |
| binds | B3 |
| binds | B4 |
| binds | B5 |
| binds | B6 |
